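Viability assay of Plasmodium falciparum sporozoites; the read-out is not stated. The concentration is filed as 10 mM, unlikely as a test dose, so the dose is not known. The record gives no direction; compounds that gave an IC50 in retests scored well above the rest, so higher reads as lower viability. Strong results were mostly tested again. Of about 34,000 compounds tested this way, about 280 (0.84%) reached 50% or more in at least one test.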

Each number is a percent effect as filed. The controls that fix the scale are not given in the record; negative values are as filed. Compounds were drawn at random from those tested, without regard to their results. Two or more numbers in one place are separate tests of the same structure; such repeats can differ widely.

| # | structure | Percent Effect |
|---|---|---|
| 1 | `CCC(=O)Nc1ccc2c(c1)C1(CCOCC1)CN2CCOC.O=C(O)C(F)(F)F` | 21.02% |
| 2 | `CC(NC(=O)Nc1cc(F)ccc1N1CCCCC1)c1nncn1C` (configuration not stated) | -0.32% |
| 3 | `O=C(C1CCC2(CCN(CC3CC3)CC2)O1)N1CCCC1.O=C(O)C(F)(F)F` (configuration not stated) | -2.908% |
| 4 | `O=C(COc1coc(CN2CCSCC2)cc1=O)c1ccccc1` | -4.995% |
| 5 | `O=C(NCCOc1ccccc1)Nc1cc(C(F)(F)F)c[nH]c1=O` | -15.28% |
| 6 | `O=C(O)C(F)(F)F.[H][C@@]12CCN(c3cccnc3)C[C@]1([H])CN(C(=O)c1cnccn1)C2` | 4.545% |
| 7 | `CCn1nnc2c1C(COC)CN(Cc1cccs1)C2.O=C(O)C(F)(F)F` (configuration not stated) | -9.019% |
| 8 | `CCc1cc(NCCc2ccc(O)cc2)n2nccc2n1` | 8.383% |
| 9 | `Cc1nn(C)c(N2CCOCC2)c1CNCc1ccc2c(c1)OCO2` | -8.129% and -37.87% and -50.59% |
| 10 | `CCOC(=O)C1CC2(CCCCC2)N2CCC(=O)N12` (configuration not stated) | -28.61% |
| 11 | `CN(C)c1ncncc1NC(=O)Cc1c[nH]c2ccc(F)cc12` | 1.959% |
| 12 | `COc1ccc(-c2noc(CN3CCOCC3C)n2)cc1OC` (configuration not stated) | 7.04% |
| 13 | `CSCC(C)(O)CNC(=O)c1ccc(Br)cc1F` (configuration not stated) | -16.84% |
| 14 | `CCC1CN(CC(=O)Nc2sccc2C#N)CCO1` (configuration not stated) | -8.409% |
| 15 | `CC(C)SCC(=O)N1Cc2cnc(-c3ccccc3)nc2C1` | -10.88% |
| 16 | `[H][C@@]12CCCO[C@]1([H])[C@H](NC(=O)CC1CC1)CN(C(=O)c1ccsc1)C2` | 7.881% |
| 17 | `Cc1ccccc1CN1CCC(c2nn(CCN)c3nccnc23)C1` (configuration not stated) | -0.5363% |
| 18 | `CCc1cnc(CN(C(C)=O)C2CCN(CC(=O)N3CCCC3)C2)o1` (configuration not stated) | 12.88% |
| 19 | `O=C(O)C(F)(F)F.c1cnc(N2CCCC3(CCN(CC4CCC4)C3)C2)nc1` (configuration not stated) | 11.45% |
| 20 | `[H][C@]12CN(c3ncccn3)CC[C@@]1(O)CCN(S(=O)(=O)N(C)C)C2` | -16.06% and -16.11% |
| 21 | `CC(=O)N1CCC(c2cnc(-c3c(C)n[nH]c3C)cn2)CC1` | -1.841% |
| 22 | `COc1ccc(F)c(CN2CCC3(CCC(=O)N(CC(N)=O)C3)CC2)c1` | -1.931% |
| 23 | `NC(=O)C1CCCN(C(=O)c2cnc3c(cnn3C3CCCC3)c2)C1` (configuration not stated) | 8.141% |
| 24 | `Cc1n[nH]cc1C(=O)N1CCCC(n2nnc3cc(F)ccc32)C1` (configuration not stated) | -10.96% |
| 25 | `O=C1CC(NCc2ccc(OC(F)F)cc2)CN1Cc1cccc(F)c1` (configuration not stated) | -0.1065% |
| 26 | `Cc1cccc(CNC2CC3(CCN(CCO)CC3)c3ccccc32)n1.O=C(O)C(F)(F)F.O=C(O)C(F)(F)F` (configuration not stated) | 11.21% |
| 27 | `CN(C)S(=O)(=O)c1ccc(CN2CCCC2CO)o1` (configuration not stated) | -6.438% |
| 28 | `O=C(O)C(F)(F)F.[H][C@]12CN(Cc3ccc(C)cc3)C[C@@]1([H])S(=O)(=O)CC[C@@H]2C(=O)NCC(C)C` | 3.596% |
| 29 | `COc1cc2c(cc1CNC(=O)Cc1cc(C)[nH]n1)OC(C)C2` (configuration not stated) | 6.91% |
| 30 | `CC(C)c1nc(C2CCCN2CCN2CCCCC2)no1` (configuration not stated) | 0% |
| 31 | `Cn1nc(C(=O)N2CCCC(n3cncn3)C2)ccc1=O` (configuration not stated) | -3.567% |
| 32 | `O=C(NC[C@H]1CC[C@H](c2ccnc3ncnn32)CC1)c1ccccn1` | 4.22% |
| 33 | `CN(C)S(=O)(=O)N1CCC(c2n[nH]cc2-c2ccnc(N)c2)C1` (configuration not stated) | 14.25% |
| 34 | `Cn1cnc2c1C(COCC1CCOCC1)CN(Cc1ccccn1)C2.O=C(O)C(F)(F)F.O=C(O)C(F)(F)F.O=C(O)C(F)(F)F` (configuration not stated) | 3.367% |
| 35 | `CN(Cc1ccccc1O)C(=O)NC1CCCN(c2ncccn2)C1` (configuration not stated) | -12.04% |
| 36 | `[H][C@@]12CN(C(=O)c3cccc(C)n3)C[C@]1([H])OCCN2C(C)C` | -21.97% |
| 37 | `Cc1nc(C)n(CC2CCCCN2CC(=O)N(C)Cc2ccco2)n1` (configuration not stated) | -8.555% |
| 38 | `Cn1ccnc1CN1CCCN(C(=O)c2ccc(O)nc2)CC1` | 0.2417% |
| 39 | `COc1ccc(CNC(C)Cn2cccn2)c(OC)c1OC.Cl` (configuration not stated) | -4.034% |
| 40 | `Cc1cc(NC(=O)CN2CCn3c(nnc3-c3ccccc3)C2)no1` | 5.128% |
| 41 | `Cl.Clc1cccc(N[C@H]2CCCN[C@H]2Cc2ccccc2)c1` | 17.07% |
| 42 | `CCn1nc(C)c(CN(Cc2ccccn2)Cc2ccccc2Cl)c1C` | 11.74% |
| 43 | `Cn1cccc1C(=O)N1CCN(Cc2ccncc2)c2ncccc2C1.O=C(O)C(F)(F)F.O=C(O)C(F)(F)F` | 1.19% |
| 44 | `CCn1cc(S(=O)(=O)N2CCCC3(CC=CNC3=O)C2)cn1` (configuration not stated) | -15.22% |
| 45 | `CCOCC1CN(S(C)(=O)=O)Cc2nn(C)cc21` (configuration not stated) | 2.129% |
| 46 | `[H][C@]12CCCN(S(=O)(=O)c3ccc(Cl)s3)[C@@]1([H])CN(C(=O)CC(C)C)C2` | -8.266% |
| 47 | `CNc1cc(N2CCCC2CNCc2ccccn2)ncn1` (configuration not stated) | -8.568% |
| 48 | `COc1cccc(COCC(O)CN2CC(n3cccn3)C2)c1` (configuration not stated) | 4.946% |
| 49 | `O=C(O)C(F)(F)F.[H][C@]12CCN(C(=O)c3ccncc3F)[C@@]1([H])CC[C@@H](COCC(C)C)O2` | -13.6% |
| 50 | `O=C(CN1CCc2cncnc2C1)NCCOc1ccccc1` | 5.297% |
| 51 | `c1cc(CN2CCCC(c3noc(C4CC4)n3)C2)no1` (configuration not stated) | -4.32% |
| 52 | `CC1(C)CNC(=O)CN(C(=O)COc2ccccc2)C1` | -15.02% |
| 53 | `COc1ccc(OCCCNC(=O)NCc2csc(C)n2)cc1` | 18.15% and -0.08354% and 6.595% |
| 54 | `[H][C@]12CNC[C@@]1(C(=O)NCc1snnc1C)CN(C(=O)COC)C2` | 10% |
| 55 | `CC(=O)N1CCC2(CCN(C(=O)c3ccc(Cl)c(C(F)(F)F)c3)CC2)C1` | -8.837% |
| 56 | `O=C(c1cccc(S(=O)(=O)NCCc2cscn2)c1)N1CCOCC1` | 0.08772% |
| 57 | `Cc1ccn(-c2ccccc2NCc2ccccn2)n1` | 10.27% |
| 58 | `O=C(NC1CC1)N1CCCC2(CCCCN2)C1.O=C(O)C(F)(F)F` (configuration not stated) | 4.79% |
| 59 | `Cc1cnn(C2CCCN(C(=O)CCc3c(C)noc3C)C2)c1` (configuration not stated) | 14.4% |
| 60 | `COc1ccc(C(C)NCc2cscn2)cc1Cn1cccn1` (configuration not stated) | 12.46% |
| 61 | `CNc1cc(C2CN(C(=O)c3ccccc3)CCO2)nc(C)n1` (configuration not stated) | 3.035% |
| 62 | `Cc1ccccc1CCNC(=O)N1CCCC(c2nncn2C)C1` (configuration not stated) | 7.348% |
| 63 | `CSc1cc2c(cc1NC(=O)N(C)Cc1ccncc1)OCCO2` | -11.77% and -7.477% |
| 64 | `CCN(CC1CCOC1)C(=O)c1ccccc1N1CCOCC1` (configuration not stated) | 0.8965% |
| 65 | `Cc1ccc(CN2CCC3(CCCN3S(C)(=O)=O)CC2)s1.O=C(O)C(F)(F)F` | 9.966% |

Once more, the final 8:

structure	Percent Effect
O=C(NC1CC1)N1CCCC2(CCCCN2)C1.O=C(O)C(F)(F)F (configuration not stated)	4.79%
Cc1cnn(C2CCCN(C(=O)CCc3c(C)noc3C)C2)c1 (configuration not stated)	14.4%
COc1ccc(C(C)NCc2cscn2)cc1Cn1cccn1 (configuration not stated)	12.46%
CNc1cc(C2CN(C(=O)c3ccccc3)CCO2)nc(C)n1 (configuration not stated)	3.035%
Cc1ccccc1CCNC(=O)N1CCCC(c2nncn2C)C1 (configuration not stated)	7.348%
CSc1cc2c(cc1NC(=O)N(C)Cc1ccncc1)OCCO2	-11.77% and -7.477%
CCN(CC1CCOC1)C(=O)c1ccccc1N1CCOCC1 (configuration not stated)	0.8965%
Cc1ccc(CN2CCC3(CCCN3S(C)(=O)=O)CC2)s1.O=C(O)C(F)(F)F	9.966%

Source: ChEMBL document CHEMBL3988442, “University of Dundee, Small-Polar-MMV Screening Library” (2021).